Data source: PubChem BioAssay AID602196 (INSERM, 2012)

- Assay: 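Modifiers of cisplatin sensitivity in A549 cells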
- Cells: human A549 lung cancer cells
- Reagent: siRNA pair against human genes
- Time to read-out: 48 h transfection before cisplatin; time from cisplatin to read-out not stated
- Challenge: cisplatin at a dose killing half of control-siRNA cells; exact dose and duration not given
- Measurement: 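Shift in cisplatin death relative to control siRNA, from -50 (all cells die) to +50 (no cells die); siRNAs harmful on their own scored 0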
- Reading the numbers: two-siRNA summed score (-2 to +2): higher = both siRNAs protect from cisplatin killing; -2 means both sensitise; mean protection from cisplatin (shift in death) and protection from cisplatin (shift in death), siRNA C: higher = protection from cisplatin killing
- Active means: 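Each siRNA scores 0 if harmful alone by LDH or WST-1, otherwise +1 if it reduces and -1 if it increases cisplatin killing; a gene is active when both siRNAs agree (sum +2 or -2)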
- Calls: active = both siRNAs shift cisplatin killing the same way; inactive = no consistent shift, or siRNA harmful alone
In all, the deposit lists about 23,000 reagents; shown is an unselected part. 455 of all reagents (2%) count as active. 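Active includes both protection and sensitisation; some change values fall well beyond the stated -50 to +50 range.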 Unmarked entries are inactive. Further read-outs or replicates are left out here. Not given: the amount of reagent.

gene knocked down	two-siRNA summed score (-2 to +2)	mean protection from cisplatin (shift in death) (%)	protection from cisplatin (shift in death), siRNA C (%)
DDX20	0	6.3	3.8
TAS2R16	-1	-6.5	2.5
TDRP	0	-2.7	-3
LRP5L	0	5.1	10.8
CDC42EP5	0	0.6	-1.3
LOC440586	1	12.1	11.8
LOC441321	0	0.6	1.5
CEP19	0	-0.2	-4.8
CIROZ	-1	-0.9	-14.4
MLEC	1	9.4	-1.7
POMGNT2	0	-7.5	-22.1
LOC402578	0	2.8	2.4
RPS2P6	0	25.3	15.6
PDRG1	0	3.1	0.2
OR52M1	0	11.1	8.7
GLIS2	0	-2.1	-0.7
ARID3B	0	10.6	4.3
CHD1	-1	-8.9	-1.3
TAF9	1	16.2	16.5
GABRR2	0	-0.4	-4.8
HRNR	1	7.1	-7.8
BFAR	0	-11	-15
CLDN6	1	8.3	5
ABCC2	0	13.1	-8.7
SIRAL1	-1	-10.6	-19
CCT8	-2 (active)	-17.6	-20
LINC00597	0	-8	-11.4
LOC389687	0	4	-0.6
CYRIA	0	-1.3	-8.6
NUPR1	0	-0.9	-9.4
RSPO2	1	16.9	12.6

Limited to “mean protection from cisplatin (shift in death) (%)” (4 entries from above):
SIRAL1 = -10.6
CCT8 = -17.6 (active)
LINC00597 = -8
LOC389687 = 4

Further reagents follow:
gene knocked down	two-siRNA summed score (-2 to +2)	mean protection from cisplatin (shift in death) (%)	protection from cisplatin (shift in death), siRNA C (%)
SLC25A1	0	-3.4	-5.3
LOC440873	0	8.2	11.4
IQCE	0	5.1	-0.9
DCAF10	0	9.8	14.3
LOC442369	0	8.5	16.4
DEPDC4	0	6.2	8.2
SNAI2	0	-0.2	2.2
LIG3	0	2.2	3.5
ABL1	0	2.2	-1.5
LOC401478	0	3.2	8.7
GPRC5A	0	8.5	3.5
BEX4	0	-6.5	-2.3
EXOC7	-2 (active)	-26.7	-22.9
LILRA4	0	-8.8	-11.7
LOC440753	1	11.2	18.5
ING5	-1	-8.5	-15.9
LINC01734	0	4.4	-3.8
SSTR2	-1	-16.5	-11.3
PWP1	1	9.9	11.7
MRC2	0	-20.6	-29.8
NLN	0	-10.3	-9.7
SLC29A2	1	3	-3.8
ALOX5AP	0	3.7	-2.9
TMEM273	1	13.3	0.7
LOC392531	0	-0.8	3.8
MLLT10	1	18.3	7.1
